For some assays here: The comparison behind a weaker result is the experiment's own reference, which may not be listed here. For some assays here: The exact form of at least one protein or probe is not confirmed. For some assays here: At least one verdict was read from the data and is not stated in words by the source.
Assays:
[1] = target: SsOGT D27A (Sulfolobus solfataricus) (UniProt Q97VW7); assay: competition with a labelled probe; details: repair competition with BG-VG, 50 C; O6-methylguanine at position 26 of strand 1; EMSA: 0-25 uM protein, 0.2 uM probe, 37 C 10 min, 10 ul, buffer as ref. 17, 8% native PAGE in 1X TBE pH 8.3; recombinant protein; residues 1-151; protein details: N-terminal His (pQE31); letters put together from the description
[2] = target: SsOGT C119A (Sulfolobus solfataricus) (UniProt Q97VW7); assay: EMSA; details: comparable for all lesion positions, EMSA: 0-25 uM protein, 0.2 uM probe, 37 C 10 min, 10 ul, buffer as ref. 17, 8% native PAGE in 1X TBE pH 8.3, recombinant protein, residues 1-151, protein details: N-terminal His (pQE31)
[3] = target: SsOGT D27A (Sulfolobus solfataricus) (UniProt Q97VW7); assay: EMSA; details: similar to wild type; EMSA: 0-25 uM protein, 0.2 uM probe, 37 C 10 min, 10 ul, buffer as ref. 17, 8% native PAGE in 1X TBE pH 8.3; recombinant protein; residues 1-151; protein details: N-terminal His (pQE31); label: TAMRA, 5' of A+
[4] = target: SsOGT C119L (Sulfolobus solfataricus) (UniProt Q97VW7); assay: EMSA; details: slightly reduced affinity vs wild type; EMSA: 0-25 uM protein, 0.2 uM probe, 37 C 10 min, 10 ul, buffer as ref. 17, 8% native PAGE in 1X TBE pH 8.3; recombinant protein; residues 1-151; protein details: N-terminal His (pQE31); label: TAMRA, 5' of A+
[5] = target: SsOGT C119F (Sulfolobus solfataricus) (UniProt Q97VW7); assay: EMSA; details: slightly reduced affinity vs wild type; EMSA: 0-25 uM protein, 0.2 uM probe, 37 C 10 min, 10 ul, buffer as ref. 17, 8% native PAGE in 1X TBE pH 8.3; recombinant protein; residues 1-151; protein details: N-terminal His (pQE31); label: TAMRA, 5' of A+
[6] = target: SsOGT D27K (Sulfolobus solfataricus) (UniProt Q97VW7); assay: EMSA; details: slightly reduced vs wild type and D27A; EMSA: 0-25 uM protein, 0.2 uM probe, 37 C 10 min, 10 ul, buffer as ref. 17, 8% native PAGE in 1X TBE pH 8.3; recombinant protein; residues 1-151; protein details: N-terminal His (pQE31); label: TAMRA, 5' of A+

## GGCAGTAGGCCTAGCATGACAATCTGCATTGGTGATCACGG / CGCTCATCCACAATGCAGATTGTCATGCTAGGCCTACTGCC [ds-Fwdm26]
[1]
  IC50: 2260 nM
[2]; O6-methylguanine at position 26 of strand 1, letters put together from the description
  binding result: binds

## GGCAGTAGGCCTAGCATGACAATCTGCATTGGTGATCACGG / CGCTCATCCACAATGCAGATTGTCATGCTAGGCCTACTGCC [ds-Fwdm40]
[2]; O6-methylguanine at position 40 of strand 1
  binding result: binds

## GGCAGTAGGCCTAGCATGACAATCTGCATTGGTGATCACGG / CGCTCATCCACAATGCAGATTGTCATGCTAGGCCTACTGCC [ds-Fwdm2]
[2]; O6-methylguanine at position 2 of strand 1
  binding result: binds

## GCAACAACGTTGCGCAAACTATTAACTGGCGAACTACTTA (double strand) [ds A+/D- (A+/A- in Fig. 3 legend)]
[3]
  binding result: binds
[4]
  binding result: binds more weakly
[5]
  binding result: binds more weakly
[6]
  binding result: binds more weakly

— publication PMC4605297
